Results are given in words; binding and its absence hold for the method and conditions named.
Target: EGFR WT protein in solution phase (MST) (UniProt P00533)
Assay: MST; Monolith NT.115 Pico, 25 °C; 10 nM protein labelled with NT 650 NHS; 16-step 1:1 dilution of peptide (top 50 µM …; FALGEA 20 µM for EGFR WT, 10 µM for EGFRvIII); 1× PBS pH 7.4, 0.005% Tween-20, 1% DMSO; three independent experiments; both purified

binding: no binding (tested: 20 µM)
B1: FALGEA peptide (as used in microscale thermophoresis) (peptide)
peptide: FALGEA
